Results as given in US6043248A, “Alpha-substituted pyrimidine-thioalkyl and alkylether compounds as inhibitors of viral reverse transcriptase” (priority 1997, dated 2000).
For at least one compound, name, drawing or mass did not settle the structure.

Molecular target: T1, P236L viral reverse transcriptase (Human immunodeficiency virus type 1 group M subtype B, UniProt P04585, P823L)
T1 construct: P236L viral reverse transcriptase is obtained by PNAS 90: 4713-4717 (1993); made in house
Test: inhibition of viral reverse transcriptase (P236L), cell free assay
Type: biochemical
Details: 30 minutes at 37° C., read-out: IC50 (Table I, P236L)
From the text: The utility of the pyrimidine-thioalkyl and alkylether anti-AIDS compounds of Formula IA of this invention can be determined by their ability to inhibit viral reverse transcriptase, an enzyme essential for human immunodeficiency virus replication. This enzyme has characteristics which differentiate it from other known cellular polymerases and it is a unique enzyme which is not found in uninfected cells. Viral reverse transcriptase (Wild Type) is found in extracts from bacterial clones prepared according to the procedure described in AIDS Virus Reverse Transcriptase defined by high level expression in Escherichia coli, EMBO J. 6:3133-3137 (1987). P236L viral reverse transcriptase is obtained by PNAS 90: 4713-4717 (1993). Inhibition of this enzyme is determined in a cell free assay which measures the level of radioactive precursors incorporated into DNA. Extracts prepared according to the procedure of Science, 1125-1129 (1981) are incubated in a mixture of inhibitor, 20 mM dithiothreitol, 60 mM sodium chloride, 0.05% NP-40, 10 mM magnesium chloride, 50 mM Tris pH 8.3, 10 μM [^35 S]-labeled deoxynuleoside-5'-triphosphate, 10 μg/ml RNA template (poly rC or poly rG) and 5 μg/ml DNA primer (oligo dG or oligo dT) for 30 minutes at 37° C. Incorporation of radio-labeled percursor is determined by spotting aliquots of the reaction mixture on DE81 paper, washing the papers to remove unincorporated percursor, drying and determining counts. The results (IC50 means the concentration, in μM of drug, required to inhibit the reverse transcriptase activity (P236L and Wild Type) to the extent of 50%) of various assay(s) are combined and reported as % inhibition and/or IC50 (calculated) in Table I (P236L) and Table II (Wild Type).

Compared with Nc1cc(Cl)nc(SCc2cc(C3CCCCC3)ccn2)n1 [Example 189, 4-amino-6-chloro-2[2-(4-cyclohexyl)pyridylmethylthio]pyrimidine], Nc1cc(Cl)nc(SCc2cc(C3CCCC3)ccn2)n1 [Example 138, 4-amino-6-chloro-2-[2-(4-cyclopentyl)pyridylmethylthio]-pyrimidine] is 8.3-fold lower in IC50: 1000 nM for the first, 120 nM for the second.

Nc1cc(Cl)nc(SCc2cc(Sc3ccccc3)ccn2)n1 [Example 116, 4-amino-6-chloro-2-[2-(4-thiophenyl)pyridylmethylthio]-pyrimidine] gave an IC50 of 10000 nM.
